From patent EP1029544A1, “INTRA-CANCER-CELL NUCLEASE ACTIVATOR” (Nippon Shinyaku Co., Ltd., priority 1997, dated 1999)
Converted amounts (≈) assume the structure as drawn.

System: MCF7
Test: Growth inhibitory effect (in vitro), MTT method
Format: cell-based
Settings: Homo sapiens, 72 h; MCF7, Breast adenocarcinoma; 3 days
Description: A 96-well plate was seeded with cells at a density of 10^4 cells/well. On the following day, the activator of Example 4 or adriamycin was added and the cultivation was continued. After 3 days the viable cell count was determined by the MTT method.

IC50: 0.073 µg/mL (≈ 0.134 µM)
Compound: COc1cccc2c1C(=O)c1c(O)c3c(c(O)c1C2=O)C[C@@](O)(C(=O)CO)C[C@@H]3O[C@H]1C[C@H](N)[C@H](O)[C@H](C)O1 [Adriamycin]
